PubChem BioAssay AID602196, INSERM – 2012
This is a random part of about 23,000 deposited reagents. 455 of them (2%) were called active. 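Active includes both protection and sensitisation; some change values fall well beyond the stated -50 to +50 range.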 Further read-outs or replicates are left out here. Not given: the amount of reagent.

Assay: 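Genes whose knock-down alters cisplatin killing of lung cancer cells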
Cell system: human A549 lung cancer cells
Knock-down reagent: siRNA pair against human genes
Timing: 48 h transfection before cisplatin; time from cisplatin to read-out not stated
Treatment: cisplatin at a dose killing half of control-siRNA cells; exact dose and duration not given
Measured: 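Cisplatin cell death as a shift from the 50% death seen with control siRNA; siRNAs toxic or growth-blocking alone scored 0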
Reading the numbers: two-siRNA summed score (-2 to +2): higher = both siRNAs protect from cisplatin killing; -2 means both sensitise
Call rule: 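Each siRNA scores 0 if harmful alone by LDH or WST-1, otherwise +1 if it reduces and -1 if it increases cisplatin killing; a gene is active when both siRNAs agree (sum +2 or -2)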
Meaning of the calls: active = both siRNAs shift cisplatin killing the same way; inactive = no consistent shift, or siRNA harmful alone

{"gene symbol": "ZNF215 (zinc finger protein 215)", "two-siRNA summed score (-2 to +2)": 1, "outcome": "inactive"}
{"gene symbol": "ZNF547 (zinc finger protein 547)", "two-siRNA summed score (-2 to +2)": 0, "outcome": "inactive"}
{"gene symbol": "ERC2 (ELKS/RAB6-interacting/CAST family member 2)", "two-siRNA summed score (-2 to +2)": 0, "outcome": "inactive"}
{"gene symbol": "PARVG (parvin gamma)", "two-siRNA summed score (-2 to +2)": 0, "outcome": "inactive"}
{"gene symbol": "HMGN3 (high mobility group nucleosomal binding domain 3)", "two-siRNA summed score (-2 to +2)": -1, "outcome": "inactive"}
{"gene symbol": "VPS11 (VPS11 core subunit of CORVET and HOPS complexes)", "two-siRNA summed score (-2 to +2)": 0, "outcome": "inactive"}
{"gene symbol": "BTBD3 (BTB domain containing 3)", "two-siRNA summed score (-2 to +2)": 0, "outcome": "inactive"}
{"gene symbol": "RASSF2 (Ras association domain family member 2)", "two-siRNA summed score (-2 to +2)": 1, "outcome": "inactive"}
{"gene symbol": "LOC440574", "two-siRNA summed score (-2 to +2)": 0, "outcome": "inactive"}
{"gene symbol": "VPREB3 (V-set pre-B cell surrogate light chain 3)", "two-siRNA summed score (-2 to +2)": 0, "outcome": "inactive"}
{"gene symbol": "PARP12 (poly(ADP-ribose) polymerase family member 12)", "two-siRNA summed score (-2 to +2)": -1, "outcome": "inactive"}
{"gene symbol": "SCHIP1 (schwannomin interacting protein 1)", "two-siRNA summed score (-2 to +2)": 0, "outcome": "inactive"}
{"gene symbol": "OSGEP (O-sialoglycoprotein endopeptidase)", "two-siRNA summed score (-2 to +2)": 0, "outcome": "inactive"}
{"gene symbol": "LOC442250", "two-siRNA summed score (-2 to +2)": 0, "outcome": "inactive"}
{"gene symbol": "LOC442422", "two-siRNA summed score (-2 to +2)": 0, "outcome": "inactive"}
{"gene symbol": "IVD (isovaleryl-CoA dehydrogenase)", "two-siRNA summed score (-2 to +2)": 0, "outcome": "inactive"}
{"gene symbol": "SLC2A4", "two-siRNA summed score (-2 to +2)": 0, "outcome": "inactive"}
{"gene symbol": "LOC401234", "two-siRNA summed score (-2 to +2)": 0, "outcome": "inactive"}
{"gene symbol": "TTLL4 (tubulin tyrosine ligase like 4)", "two-siRNA summed score (-2 to +2)": 2, "outcome": "active"}
{"gene symbol": "PCCB (propionyl-CoA carboxylase subunit beta)", "two-siRNA summed score (-2 to +2)": 0, "outcome": "inactive"}
{"gene symbol": "SLC16A10", "two-siRNA summed score (-2 to +2)": 0, "outcome": "inactive"}
{"gene symbol": "IRGQ (immunity related GTPase Q)", "two-siRNA summed score (-2 to +2)": 0, "outcome": "inactive"}
{"gene symbol": "VN1R2 (vomeronasal 1 receptor 2)", "two-siRNA summed score (-2 to +2)": -1, "outcome": "inactive"}
{"gene symbol": "RPS4Y2 (ribosomal protein S4 Y-linked 2)", "two-siRNA summed score (-2 to +2)": 0, "outcome": "inactive"}
{"gene symbol": "UTS2R (urotensin 2 receptor)", "two-siRNA summed score (-2 to +2)": 0, "outcome": "inactive"}
{"gene symbol": "GTF2IRD1 (GTF2I repeat domain containing 1)", "two-siRNA summed score (-2 to +2)": 0, "outcome": "inactive"}
{"gene symbol": "FCGR2C (Fc gamma receptor IIc (gene/pseudogene))", "two-siRNA summed score (-2 to +2)": 0, "outcome": "inactive"}
{"gene symbol": "AFF4 (ALF transcription elongation factor 4)", "two-siRNA summed score (-2 to +2)": 0, "outcome": "inactive"}
{"gene symbol": "SORCS3 (sortilin related VPS10 domain containing receptor 3)", "two-siRNA summed score (-2 to +2)": 0, "outcome": "inactive"}
{"gene symbol": "LOC157693", "two-siRNA summed score (-2 to +2)": 1, "outcome": "inactive"}
{"gene symbol": "MYH8 (myosin heavy chain 8)", "two-siRNA summed score (-2 to +2)": 0, "outcome": "inactive"}

Reagents listed above called active:
{"gene symbol": "TTLL4 (tubulin tyrosine ligase like 4)", "two-siRNA summed score (-2 to +2)": 2, "outcome": "active"}
